Experimental data from patent publication US20250059191A1, “CRYSTALLINE FORMS OF DIAZABICYCLOOCTANE DERIVATIVE AND PRODUCTION PROCESS THEREOF” (MEIJI SEIKA PHARMA CO., LTD., priority 2013, published 2025).
Some entries share one result that the patent states for a list of compounds.

Experiment: Stability test of amorphous form and crystalline forms I-IV, 40° C./75% RH, airtight container
Assay type: physicochemical
Experimental: Crystalline form III of Example 7a were dissolved in water and subjected to lyophilisation to afford (2S,5R)-N-(2-aminoethoxy)-7-oxo-6-(sulfooxy)-1,6-diazabicyclo[3.2.1]octane-2-carboxamide (VII-1) in an amorphous form. The compounds in an amorphous form and crystalline forms I-IV of Examples 5-8 were each weighed in a screw bottle, and stability tests were conducted at each of the temperatures and humidity conditions. The methods of measurement of related substances, content measurement, and water content measurement were as follows.
Samples were dissolved in water, and these solutions were used as sample solutions. The sample solutions each in the amount of 5 μL were tested under the following conditions by JP16, Liquid Chromatography <2.01>to obtain the amount of each related substance (%) and the total amount of related substances (%), and the content.
• Column: Waters Atlantis dc18, 5 μm, 4.6×250 mm • Column temperature: a constant temperature of about 35° C. • Injected amount: 5 μL • Detector: an ultraviolet absorption photometer (wavelength: 210 nm) • Mobile phase A: 1.32 g of diammonium hydrogenphosphate was dissolved in 900 mL of water, and phosphoric acid was added to adjust the pH to 3.0. To this was then added water to make 1000 mL. • Mobile phase B: Acetonitrile for liquid chromatography • Gradient program: The mixing ratio of mobile phase A to mobile phase B was controlled as the following time program.
About 20 mg of the product was precisely measured and tested by JP16, Water Determination <2.48>Coulometric titration.

SMILES | Content (1 month) | Content (3 months) | Total amount of related substances (3 months) | Water content (3 months) | Content (at start) | Total amount of related substances (at start) | Water content (at start)
NCCONC(=O)[C@@H]1CC[C@@H]2CN1C(=O)N2OS(=O)(=O)O [Crystalline form I, (2S,5R)-N-(2-aminoethoxy)-7-oxo-6-(sulfooxy)-1,6-diazabicyclo[3.2.1]octane-2-carboxamide] | 99.8-100.0% | 99.3-99.9% | 0.0-0.5% | 5.5-5.9% | 99.8-99.9% | 0.0-0.1% | 5.3-5.7%
NCCONC(=O)[C@@H]1CC[C@@H]2CN1C(=O)N2OS(=O)(=O)O [Crystalline form II, (2S,5R)-N-(2-aminoethoxy)-7-oxo-6-(sulfooxy)-1,6-diazabicyclo[3.2.1]octane-2-carboxamide] | 99.8-100.0% | 99.3-99.9% | 0.0-0.5% | 5.5-5.9% | 99.8-99.9% | 0.0-0.1% | 5.3-5.7%
NCCONC(=O)[C@@H]1CC[C@@H]2CN1C(=O)N2OS(=O)(=O)O [Crystalline form III, (2S,5R)-N-(2-aminoethoxy)-7-oxo-6-(sulfooxy)-1,6-diazabicyclo[3.2.1]octane-2-carboxamide] | 99.8-100.0% | 99.3-99.9% | 0.0-0.5% | 5.5-5.9% | 99.8-99.9% | 0.0-0.1% | 5.3-5.7%
NCCONC(=O)[C@@H]1CC[C@@H]2CN1C(=O)N2OS(=O)(=O)O [Crystalline form IV, (2S,5R)-N-(2-aminoethoxy)-7-oxo-6-(sulfooxy)-1,6-diazabicyclo[3.2.1]octane-2-carboxamide] | 99.8-100.0% | 99.3-99.9% | 0.0-0.5% |  | 99.8-99.9% | 0.0-0.1% | 
